Consider three substances from publication PMC4683276.

Chains of the proteins cited; added tags and fusions are not shown. Lines headed by an entry give the natural chain unless they say otherwise; changes in a name come on top. Residues count along the entry.
UniProt Q13308: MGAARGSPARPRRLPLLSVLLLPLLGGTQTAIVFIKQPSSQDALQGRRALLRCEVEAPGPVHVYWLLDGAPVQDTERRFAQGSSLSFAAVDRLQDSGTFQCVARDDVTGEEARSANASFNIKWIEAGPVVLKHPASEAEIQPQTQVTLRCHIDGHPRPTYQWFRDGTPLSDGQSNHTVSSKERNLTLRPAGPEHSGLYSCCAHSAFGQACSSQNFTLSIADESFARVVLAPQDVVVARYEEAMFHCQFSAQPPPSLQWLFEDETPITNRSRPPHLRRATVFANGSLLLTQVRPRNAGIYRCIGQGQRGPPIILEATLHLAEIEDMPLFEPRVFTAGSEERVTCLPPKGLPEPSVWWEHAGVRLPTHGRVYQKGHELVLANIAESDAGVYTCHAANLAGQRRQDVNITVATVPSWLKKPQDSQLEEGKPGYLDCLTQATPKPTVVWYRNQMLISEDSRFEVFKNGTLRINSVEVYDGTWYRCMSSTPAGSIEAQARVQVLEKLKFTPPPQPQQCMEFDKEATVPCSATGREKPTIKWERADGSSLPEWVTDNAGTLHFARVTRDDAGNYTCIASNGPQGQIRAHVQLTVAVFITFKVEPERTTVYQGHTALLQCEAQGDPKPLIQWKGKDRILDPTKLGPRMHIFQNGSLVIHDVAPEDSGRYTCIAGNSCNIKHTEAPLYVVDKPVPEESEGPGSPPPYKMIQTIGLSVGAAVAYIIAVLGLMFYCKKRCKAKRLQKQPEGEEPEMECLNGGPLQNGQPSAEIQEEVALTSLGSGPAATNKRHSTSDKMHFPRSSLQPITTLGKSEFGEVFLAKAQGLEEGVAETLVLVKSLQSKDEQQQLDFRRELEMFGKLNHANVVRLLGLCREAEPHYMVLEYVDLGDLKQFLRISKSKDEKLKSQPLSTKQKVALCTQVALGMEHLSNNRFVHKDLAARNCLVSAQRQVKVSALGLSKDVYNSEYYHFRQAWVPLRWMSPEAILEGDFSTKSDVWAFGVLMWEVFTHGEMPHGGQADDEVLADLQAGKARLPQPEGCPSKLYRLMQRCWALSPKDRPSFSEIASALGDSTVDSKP
UniProt Q01974, residues 34-943: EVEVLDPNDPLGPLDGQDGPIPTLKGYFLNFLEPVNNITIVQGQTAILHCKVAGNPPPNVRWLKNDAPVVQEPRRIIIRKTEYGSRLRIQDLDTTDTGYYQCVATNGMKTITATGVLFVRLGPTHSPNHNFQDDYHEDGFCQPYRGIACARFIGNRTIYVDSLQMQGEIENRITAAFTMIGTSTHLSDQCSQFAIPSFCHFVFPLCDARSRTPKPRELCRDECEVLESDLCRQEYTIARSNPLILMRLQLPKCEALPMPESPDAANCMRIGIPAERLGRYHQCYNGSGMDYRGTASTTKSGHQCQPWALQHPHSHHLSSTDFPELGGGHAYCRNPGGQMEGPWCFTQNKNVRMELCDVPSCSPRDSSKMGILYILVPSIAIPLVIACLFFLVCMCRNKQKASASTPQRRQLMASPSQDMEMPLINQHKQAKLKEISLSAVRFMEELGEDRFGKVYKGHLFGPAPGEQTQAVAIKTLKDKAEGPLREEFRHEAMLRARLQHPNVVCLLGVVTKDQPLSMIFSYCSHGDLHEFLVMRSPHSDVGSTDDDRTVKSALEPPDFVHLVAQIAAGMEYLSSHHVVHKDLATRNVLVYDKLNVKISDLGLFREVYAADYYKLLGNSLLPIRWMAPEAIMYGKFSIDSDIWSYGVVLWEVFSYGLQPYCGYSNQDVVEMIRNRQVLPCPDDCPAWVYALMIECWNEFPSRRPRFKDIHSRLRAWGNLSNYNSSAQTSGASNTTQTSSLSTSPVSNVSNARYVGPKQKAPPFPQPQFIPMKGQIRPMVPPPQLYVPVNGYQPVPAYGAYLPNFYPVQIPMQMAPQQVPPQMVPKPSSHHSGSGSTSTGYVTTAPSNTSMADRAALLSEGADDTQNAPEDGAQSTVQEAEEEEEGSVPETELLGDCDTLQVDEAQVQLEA

No constants are given. Whether binding was seen depends on the method and setting. In cells and extracts the contact can be indirect. Binding can be weak; no strength is given. For some assays here: Sequences can lack the tags named with a protein.

One test deals with T1, MYC-WNT5A (UniProt P41221).
T1 sequence: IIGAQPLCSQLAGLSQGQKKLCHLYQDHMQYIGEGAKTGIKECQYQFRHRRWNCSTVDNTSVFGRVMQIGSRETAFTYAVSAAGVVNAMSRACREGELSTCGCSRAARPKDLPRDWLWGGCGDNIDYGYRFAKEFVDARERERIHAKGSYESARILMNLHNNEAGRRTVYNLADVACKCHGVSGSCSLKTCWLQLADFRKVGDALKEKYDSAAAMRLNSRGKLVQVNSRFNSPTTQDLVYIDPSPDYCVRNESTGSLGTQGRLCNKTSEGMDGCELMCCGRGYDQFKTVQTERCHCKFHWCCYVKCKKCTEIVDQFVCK
As to the kind of experiment: co-IP; full and truncated PTK7 co-expressed with MYC-WNT5A in HEK 293T cells; immunoprecipitation with anti-MYC antibody; Western blot (Fig. 2C). For orientation: A western blot detects proteins with antibodies after separation by electrophoresis.

The target of the next test is PTK7Δ4–7 (human) (UniProt Q13308). As to the kind of experiment: co-IP; co-expression in HEK 293T cells; 1% Triton X-100 lysis buffer (50 mM Hepes, 150 mM NaCl); immunoprecipitation with anti-PTK7 antibody and protein G-agarose; Western blot (Fig. 1A, C, D).
Another test has as its target PTK7Δ1–3 (human) (UniProt Q13308). Described as above.
A further test has as its target PTK7 ΔKN (human) (UniProt Q13308). The test is described as above.

In the case of “PTK7Δ4–7 (from UniProt Q13308) (receptor)”, the binding entry in the test with MYC-WNT5A is “binds”. On the same count and under the same terms, with “PTK7Δ1–3 (from UniProt Q13308) (receptor)” the entry was “binds”. With “FLAG-ROR2 (receptor tyrosine kinase-like orphan receptor 2) (from UniProt Q01974 34-943)”, the binding result in the test with PTK7Δ4–7 (human), in the test with PTK7Δ1–3 (human) and with PTK7 ΔKN (human) was “binds” each time.
